Data taken from PMC10559433.
These are yes or no findings as the source states them, for the method shown. Binding seen in cells or lysates may run through a third protein. Some results given as binding are weak or reduced against the parent protein; the word gives no strength.

Sequences of proteins named here, by UniProt entry; tags and fusion partners are left off.
UniProt Q99873: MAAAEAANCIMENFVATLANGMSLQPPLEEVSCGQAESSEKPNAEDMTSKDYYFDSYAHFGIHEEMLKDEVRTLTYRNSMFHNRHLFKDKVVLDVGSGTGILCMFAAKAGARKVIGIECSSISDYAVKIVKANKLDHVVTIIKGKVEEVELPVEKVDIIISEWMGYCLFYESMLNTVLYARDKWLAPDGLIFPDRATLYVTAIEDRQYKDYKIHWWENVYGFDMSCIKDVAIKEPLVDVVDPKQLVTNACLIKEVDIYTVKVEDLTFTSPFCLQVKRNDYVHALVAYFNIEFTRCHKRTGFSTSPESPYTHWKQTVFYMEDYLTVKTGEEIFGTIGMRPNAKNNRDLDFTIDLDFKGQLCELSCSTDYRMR

How the values were obtained:
[1] = target: T1, Peroxisome proliferator activated receptor coactivator-1a (PGC-1α) (human (endogenous in CNE1/CM and HNE2/HM)) (UniProt Q9UBK2); assay: co-IP; endogenous PRMT1 and PGC-1α in lysates of CNE1/CM and HNE2/HM cells cultured in suspension; also CM and HM cells with LMP1 knocked down; which protein was precipitated is not told
T1 sequence: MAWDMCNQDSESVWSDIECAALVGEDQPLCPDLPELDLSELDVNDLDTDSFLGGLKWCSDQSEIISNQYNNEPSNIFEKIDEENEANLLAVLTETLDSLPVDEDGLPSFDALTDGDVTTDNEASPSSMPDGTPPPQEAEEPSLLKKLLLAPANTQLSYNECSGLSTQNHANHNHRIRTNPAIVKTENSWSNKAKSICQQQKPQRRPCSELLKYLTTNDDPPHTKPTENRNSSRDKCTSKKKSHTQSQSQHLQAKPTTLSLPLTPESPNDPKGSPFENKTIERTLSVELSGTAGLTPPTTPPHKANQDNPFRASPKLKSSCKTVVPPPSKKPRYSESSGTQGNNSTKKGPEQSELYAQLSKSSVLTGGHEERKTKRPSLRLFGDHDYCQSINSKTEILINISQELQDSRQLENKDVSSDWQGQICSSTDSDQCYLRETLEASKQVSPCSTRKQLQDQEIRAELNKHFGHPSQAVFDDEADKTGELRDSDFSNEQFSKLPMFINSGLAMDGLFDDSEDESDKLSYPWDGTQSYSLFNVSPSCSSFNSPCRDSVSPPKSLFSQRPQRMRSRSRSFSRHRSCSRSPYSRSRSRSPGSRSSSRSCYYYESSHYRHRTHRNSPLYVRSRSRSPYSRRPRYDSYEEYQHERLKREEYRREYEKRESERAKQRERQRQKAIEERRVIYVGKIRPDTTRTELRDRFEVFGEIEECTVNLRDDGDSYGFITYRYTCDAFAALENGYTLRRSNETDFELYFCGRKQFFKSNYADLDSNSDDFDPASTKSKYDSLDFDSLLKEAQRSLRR

[2] = target: T2, PGC-1α (overexpression plasmid, 293T cells) (UniProt Q9UBK2); assay: co-IP; 293T cells overexpressing wild type or truncated flag-LMP1, PRMT1 and PGC-1α at once; which protein was precipitated is not told
T2 sequence: T1 sequence

binding [1]	binding [2]	Substance
binds	–	Arginine methyltransferase 1 (PRMT1) (from UniProt Q99873 1-371) (enzyme)
–	binds	PRMT1 (overexpression plasmid, 293T cells) (from UniProt Q99873 1-371) (enzyme)
